In the supplement of paper PMC10849652:
The list shows a part of the results.

By UniProt entry, the sequences of proteins in these tests, tags left out. Where a name states a change or a piece, a line headed by the entry shows the natural chain unless it says otherwise.
UniProt Q5VTR2, whole entry, looked up: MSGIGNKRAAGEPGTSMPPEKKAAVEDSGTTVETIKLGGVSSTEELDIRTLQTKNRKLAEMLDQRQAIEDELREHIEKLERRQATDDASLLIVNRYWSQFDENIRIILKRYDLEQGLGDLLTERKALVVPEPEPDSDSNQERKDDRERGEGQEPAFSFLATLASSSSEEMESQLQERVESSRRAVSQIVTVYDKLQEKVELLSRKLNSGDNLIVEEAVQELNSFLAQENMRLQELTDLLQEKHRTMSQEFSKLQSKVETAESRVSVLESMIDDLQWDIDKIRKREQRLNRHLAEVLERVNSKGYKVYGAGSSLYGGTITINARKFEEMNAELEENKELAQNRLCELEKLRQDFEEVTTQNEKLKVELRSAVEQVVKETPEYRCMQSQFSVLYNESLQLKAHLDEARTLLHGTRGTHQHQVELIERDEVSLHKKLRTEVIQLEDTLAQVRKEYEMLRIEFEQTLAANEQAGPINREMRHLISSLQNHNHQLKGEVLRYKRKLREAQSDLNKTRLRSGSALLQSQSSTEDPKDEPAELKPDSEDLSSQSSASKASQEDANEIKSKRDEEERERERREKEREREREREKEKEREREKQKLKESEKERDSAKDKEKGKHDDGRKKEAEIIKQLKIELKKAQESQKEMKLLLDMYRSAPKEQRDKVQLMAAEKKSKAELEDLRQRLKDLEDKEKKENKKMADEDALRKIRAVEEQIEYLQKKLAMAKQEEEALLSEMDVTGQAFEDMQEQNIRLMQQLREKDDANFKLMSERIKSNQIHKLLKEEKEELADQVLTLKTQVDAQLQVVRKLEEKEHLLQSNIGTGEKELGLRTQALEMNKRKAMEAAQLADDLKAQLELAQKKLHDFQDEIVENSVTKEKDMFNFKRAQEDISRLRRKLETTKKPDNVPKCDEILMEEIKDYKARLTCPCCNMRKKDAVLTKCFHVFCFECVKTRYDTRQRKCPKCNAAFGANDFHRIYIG
UniProt Q9ULI2: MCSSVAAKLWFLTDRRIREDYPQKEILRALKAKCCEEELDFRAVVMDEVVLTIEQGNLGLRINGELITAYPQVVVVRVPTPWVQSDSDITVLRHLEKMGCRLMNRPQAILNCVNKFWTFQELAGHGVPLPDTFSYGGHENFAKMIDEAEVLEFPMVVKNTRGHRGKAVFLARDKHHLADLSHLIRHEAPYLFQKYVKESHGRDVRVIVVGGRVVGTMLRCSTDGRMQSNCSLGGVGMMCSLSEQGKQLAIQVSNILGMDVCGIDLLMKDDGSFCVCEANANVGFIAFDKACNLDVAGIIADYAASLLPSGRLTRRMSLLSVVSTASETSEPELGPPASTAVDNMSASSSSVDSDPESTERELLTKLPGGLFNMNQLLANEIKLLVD
UniProt Q9H871: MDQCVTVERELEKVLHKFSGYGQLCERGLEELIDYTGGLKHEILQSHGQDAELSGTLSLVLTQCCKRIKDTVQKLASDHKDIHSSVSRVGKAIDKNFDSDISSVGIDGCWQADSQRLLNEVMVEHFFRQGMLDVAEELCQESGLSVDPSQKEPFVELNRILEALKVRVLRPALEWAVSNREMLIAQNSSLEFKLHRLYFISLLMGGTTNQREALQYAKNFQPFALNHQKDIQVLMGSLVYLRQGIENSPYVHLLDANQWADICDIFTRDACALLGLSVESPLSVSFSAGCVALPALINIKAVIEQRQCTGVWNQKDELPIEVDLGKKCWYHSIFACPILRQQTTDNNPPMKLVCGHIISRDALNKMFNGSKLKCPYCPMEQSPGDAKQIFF
UniProt Q86VR2, whole entry, looked up: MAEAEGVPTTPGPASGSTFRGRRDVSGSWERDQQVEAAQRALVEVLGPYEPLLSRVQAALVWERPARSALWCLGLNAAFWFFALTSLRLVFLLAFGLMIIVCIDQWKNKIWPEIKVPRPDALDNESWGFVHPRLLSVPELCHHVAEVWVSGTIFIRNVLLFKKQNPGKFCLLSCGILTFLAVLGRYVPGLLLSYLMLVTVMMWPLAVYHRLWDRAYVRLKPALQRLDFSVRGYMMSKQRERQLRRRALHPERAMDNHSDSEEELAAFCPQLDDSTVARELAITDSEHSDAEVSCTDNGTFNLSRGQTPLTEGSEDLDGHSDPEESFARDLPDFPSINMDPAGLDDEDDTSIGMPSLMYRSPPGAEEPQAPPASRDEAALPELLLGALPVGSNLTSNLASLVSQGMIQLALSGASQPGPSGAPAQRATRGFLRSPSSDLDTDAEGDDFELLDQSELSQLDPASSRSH
UniProt Q9H6H4: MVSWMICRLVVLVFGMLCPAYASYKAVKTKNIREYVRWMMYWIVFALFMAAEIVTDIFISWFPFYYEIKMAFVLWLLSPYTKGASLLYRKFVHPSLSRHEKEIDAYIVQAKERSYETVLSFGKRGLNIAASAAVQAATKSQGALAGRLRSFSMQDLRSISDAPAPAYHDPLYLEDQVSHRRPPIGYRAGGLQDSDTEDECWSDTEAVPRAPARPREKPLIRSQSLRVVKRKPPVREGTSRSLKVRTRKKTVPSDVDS
UniProt P48380: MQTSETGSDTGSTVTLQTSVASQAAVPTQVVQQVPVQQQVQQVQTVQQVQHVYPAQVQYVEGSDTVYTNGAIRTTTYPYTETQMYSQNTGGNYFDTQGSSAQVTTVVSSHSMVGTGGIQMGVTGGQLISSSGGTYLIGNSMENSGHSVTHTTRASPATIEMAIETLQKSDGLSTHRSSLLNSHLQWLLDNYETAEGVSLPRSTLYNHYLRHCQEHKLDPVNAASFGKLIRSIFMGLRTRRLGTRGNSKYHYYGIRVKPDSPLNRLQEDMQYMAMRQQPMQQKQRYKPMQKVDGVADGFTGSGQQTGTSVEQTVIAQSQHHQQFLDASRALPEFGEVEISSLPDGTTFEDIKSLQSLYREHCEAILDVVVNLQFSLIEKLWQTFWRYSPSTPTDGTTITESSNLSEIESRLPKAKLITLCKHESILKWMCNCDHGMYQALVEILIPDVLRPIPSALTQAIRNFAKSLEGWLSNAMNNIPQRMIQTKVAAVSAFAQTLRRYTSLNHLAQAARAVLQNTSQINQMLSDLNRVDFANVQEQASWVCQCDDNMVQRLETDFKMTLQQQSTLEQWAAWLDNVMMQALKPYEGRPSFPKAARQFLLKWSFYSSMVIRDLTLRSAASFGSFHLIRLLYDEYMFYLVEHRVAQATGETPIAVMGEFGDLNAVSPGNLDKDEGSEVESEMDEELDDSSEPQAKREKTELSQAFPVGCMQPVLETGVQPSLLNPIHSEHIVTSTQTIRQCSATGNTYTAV
UniProt P61586, whole entry, looked up: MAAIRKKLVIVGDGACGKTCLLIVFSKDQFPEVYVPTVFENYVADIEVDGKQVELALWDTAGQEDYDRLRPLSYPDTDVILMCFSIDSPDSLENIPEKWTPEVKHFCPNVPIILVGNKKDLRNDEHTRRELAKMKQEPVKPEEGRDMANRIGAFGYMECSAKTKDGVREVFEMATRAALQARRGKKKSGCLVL
UniProt Q9NPQ8: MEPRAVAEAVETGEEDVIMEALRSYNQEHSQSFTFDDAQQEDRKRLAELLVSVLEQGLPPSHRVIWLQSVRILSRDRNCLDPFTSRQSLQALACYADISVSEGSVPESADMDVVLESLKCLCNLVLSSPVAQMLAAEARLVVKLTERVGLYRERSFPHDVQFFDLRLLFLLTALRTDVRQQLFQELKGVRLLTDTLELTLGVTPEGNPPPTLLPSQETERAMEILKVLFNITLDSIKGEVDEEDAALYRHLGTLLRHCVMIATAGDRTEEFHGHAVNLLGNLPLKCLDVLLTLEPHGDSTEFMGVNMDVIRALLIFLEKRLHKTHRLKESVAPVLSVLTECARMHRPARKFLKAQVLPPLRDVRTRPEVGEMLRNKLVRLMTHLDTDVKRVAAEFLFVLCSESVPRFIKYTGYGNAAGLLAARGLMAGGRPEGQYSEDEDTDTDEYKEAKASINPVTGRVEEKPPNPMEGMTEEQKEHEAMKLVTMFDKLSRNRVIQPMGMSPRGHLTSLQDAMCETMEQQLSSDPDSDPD
UniProt Q14498: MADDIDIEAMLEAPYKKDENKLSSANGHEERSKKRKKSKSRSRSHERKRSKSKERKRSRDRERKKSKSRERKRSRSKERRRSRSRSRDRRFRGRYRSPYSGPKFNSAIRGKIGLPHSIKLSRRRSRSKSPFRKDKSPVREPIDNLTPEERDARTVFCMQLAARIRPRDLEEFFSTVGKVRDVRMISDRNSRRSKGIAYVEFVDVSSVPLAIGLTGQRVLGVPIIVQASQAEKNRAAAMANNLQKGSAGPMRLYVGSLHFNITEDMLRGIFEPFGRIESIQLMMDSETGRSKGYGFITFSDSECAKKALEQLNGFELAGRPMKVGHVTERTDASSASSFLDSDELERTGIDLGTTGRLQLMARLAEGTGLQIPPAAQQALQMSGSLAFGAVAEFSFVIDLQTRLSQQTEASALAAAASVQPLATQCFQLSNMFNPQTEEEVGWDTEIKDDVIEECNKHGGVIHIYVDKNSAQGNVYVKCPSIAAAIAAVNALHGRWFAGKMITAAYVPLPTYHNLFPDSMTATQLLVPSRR
UniProt O43665: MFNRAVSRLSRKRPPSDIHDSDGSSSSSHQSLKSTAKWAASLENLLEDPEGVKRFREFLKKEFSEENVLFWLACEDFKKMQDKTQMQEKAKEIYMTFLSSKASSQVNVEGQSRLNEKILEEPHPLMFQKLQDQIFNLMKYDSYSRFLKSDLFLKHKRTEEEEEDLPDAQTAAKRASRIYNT
UniProt A6NEQ0: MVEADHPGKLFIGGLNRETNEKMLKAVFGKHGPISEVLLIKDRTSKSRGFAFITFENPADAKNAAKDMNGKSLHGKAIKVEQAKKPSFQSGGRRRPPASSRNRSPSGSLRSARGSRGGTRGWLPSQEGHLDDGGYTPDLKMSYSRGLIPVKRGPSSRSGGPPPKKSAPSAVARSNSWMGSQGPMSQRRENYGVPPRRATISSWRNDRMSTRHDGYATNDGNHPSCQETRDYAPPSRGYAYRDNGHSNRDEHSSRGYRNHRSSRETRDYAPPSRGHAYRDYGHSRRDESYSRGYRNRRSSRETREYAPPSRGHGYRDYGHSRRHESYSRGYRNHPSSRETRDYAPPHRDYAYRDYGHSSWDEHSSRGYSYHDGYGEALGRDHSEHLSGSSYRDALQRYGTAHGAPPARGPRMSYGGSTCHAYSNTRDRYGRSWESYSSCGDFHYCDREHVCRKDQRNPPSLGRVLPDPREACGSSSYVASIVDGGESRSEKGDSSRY
UniProt O00584, whole entry, looked up: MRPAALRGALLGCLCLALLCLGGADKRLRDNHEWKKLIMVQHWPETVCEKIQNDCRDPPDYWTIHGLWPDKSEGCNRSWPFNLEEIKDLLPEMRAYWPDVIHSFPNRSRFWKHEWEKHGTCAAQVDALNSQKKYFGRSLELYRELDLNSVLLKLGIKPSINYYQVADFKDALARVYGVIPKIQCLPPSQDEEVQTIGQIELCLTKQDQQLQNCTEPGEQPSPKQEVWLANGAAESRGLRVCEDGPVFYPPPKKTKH
UniProt Q96DM3: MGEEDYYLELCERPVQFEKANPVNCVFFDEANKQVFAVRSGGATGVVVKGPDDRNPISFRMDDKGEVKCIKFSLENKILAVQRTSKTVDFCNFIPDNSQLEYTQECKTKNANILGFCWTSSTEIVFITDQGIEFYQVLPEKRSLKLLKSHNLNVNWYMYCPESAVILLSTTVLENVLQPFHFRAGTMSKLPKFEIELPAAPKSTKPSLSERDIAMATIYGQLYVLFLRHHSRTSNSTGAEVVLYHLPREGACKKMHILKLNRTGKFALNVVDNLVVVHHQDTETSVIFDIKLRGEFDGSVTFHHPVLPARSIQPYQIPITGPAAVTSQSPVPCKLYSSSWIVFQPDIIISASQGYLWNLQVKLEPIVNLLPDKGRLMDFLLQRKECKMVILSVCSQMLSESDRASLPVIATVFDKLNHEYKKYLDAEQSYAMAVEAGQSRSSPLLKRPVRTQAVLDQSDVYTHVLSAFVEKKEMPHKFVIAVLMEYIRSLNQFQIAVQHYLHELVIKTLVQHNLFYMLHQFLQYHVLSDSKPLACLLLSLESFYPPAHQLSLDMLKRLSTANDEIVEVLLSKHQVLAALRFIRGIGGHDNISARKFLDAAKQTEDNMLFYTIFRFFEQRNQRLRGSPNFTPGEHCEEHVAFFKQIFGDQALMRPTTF
UniProt Q86XS8: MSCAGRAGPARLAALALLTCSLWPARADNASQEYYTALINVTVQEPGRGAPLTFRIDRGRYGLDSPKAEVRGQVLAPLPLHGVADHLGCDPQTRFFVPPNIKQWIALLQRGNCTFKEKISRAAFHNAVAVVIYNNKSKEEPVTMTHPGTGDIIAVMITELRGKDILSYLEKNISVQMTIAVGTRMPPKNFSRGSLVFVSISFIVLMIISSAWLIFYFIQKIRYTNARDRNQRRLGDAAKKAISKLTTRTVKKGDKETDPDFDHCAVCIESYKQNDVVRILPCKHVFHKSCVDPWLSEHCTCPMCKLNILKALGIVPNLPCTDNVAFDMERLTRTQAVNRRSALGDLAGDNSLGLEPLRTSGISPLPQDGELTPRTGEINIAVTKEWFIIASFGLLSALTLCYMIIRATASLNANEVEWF

Experiments:
Assay in all cases: log2 fold change, soluble protein after heating vs DMSO (PISA); higher = thermal stabilisation; K562 cells, 10 uM, 30 min; active = over 0.2 and 3.5 SD of the protein, either way, in both replicates (recomputed)
[1] = compound: CC[C@@H]1C(=O)N(C)c2cnc(Nc3ccc(C(=O)NC4CCN(C)CC4)cc3OC)nc2N1C1CCCC1
Outline: (§1)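 K562 cells at 2×10^6 cells/mL were treated with 10 μM compound for 30 min. Aliquots were heated for 3 min across 48°C-58°C, pooled, and extracted in PBS with 0.5% NP-40 at 4°C; soluble protein was the supernatant after 21,000xg for 90 min. Soluble protein was quantified by TMTpro 16plex LC-MS/MS with channel sums equalised, and reported as log2 fold change in thermal stability against DMSO controls, with values from duplicates.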

volasertib = compound: CC[C@@H]1C(=O)N(C)c2cnc(Nc3ccc(C(=O)N[C@H]4CC[C@H](N5CCN(CC6CC6)CC5)CC4)cc3OC)nc2N1C(C)C [volasertib]
Outline: as §1

[2] = compound: CC[C@H](C)N1C=C(C2=C(C=C(C=C21)C3=CN=C(C=C3)N4CCNCC4)C(=O)NCC5=C(C=C(NC5=O)C)C)C
Outline: as §1

epoxomicin = compound: CC[C@H](C)[C@@H](C(=O)N[C@@H]([C@@H](C)O)C(=O)N[C@@H](CC(C)C)C(=O)[C@]1(CO1)C)NC(=O)[C@H]([C@@H](C)CC)N(C)C(=O)C [epoxomicin]
Outline: as §1

[3] = compound: CCn1c(C(=O)N(C2CC2)C2CC2)cc2c3c(ncn3C)c(Nc3cc(C)n(C)n3)nc21
Outline: as §1

[4] = compound: CCn1cc(-c2ccnc3[nH]c(-c4cccc(CN(C)C)c4)cc23)c(-c2ccc(NC(=O)N(C)C)cc2)n1
Outline: as §1

[5] = compound: CN(C)CC(=O)Nc1ccc2[nH]c(=O)c3ccccc3c2c1
Outline: as §1

[6] = compound: CN1C2=C(C3=C1C(=O)N(N=C3)CC4=CC(=CC=C4)N)SC(=C2)S(=O)C
Outline: as §1

[7] = compound: CN1CCC(CNc2ccc3ncc(-c4cccc(OC(F)(F)F)c4)n3n2)CC1
Outline: as §1

rosiglitazone = compound: CN(CCOC1=CC=C(C=C1)C[C@H]2C(=O)NC(=O)S2)C3=CC=CC=N3 (racemic) [rosiglitazone]
Outline: as §1

Row | Target | log2 fold change [1] | log2 fold change (volasertib) | log2 fold change [2] | log2 fold change (epoxomicin) | log2 fold change [3] | log2 fold change [4] | log2 fold change [5] | log2 fold change [6] | log2 fold change [7] | log2 fold change (rosiglitazone)
1 | RIF1 (UniProt Q5UIP0) | inactive: -0.023 | inactive: -0.12 | inactive: 0.052 | inactive: -0.057 | inactive: 0.152 | inactive: -0.039 | inactive: -0.015 | inactive: 0.314 | inactive: 0.078 | –
2 | RBM8A (UniProt Q9Y5S9) | inactive: -0.051 | inactive: -0.041 | inactive: 0.038 | inactive: 0.005 | – | inactive: 0.014 | inactive: -0.037 | inactive: -0.035 | inactive: 0.065 | –
3 | RER1 (UniProt O15258) | inactive: -0.008 | inactive: 0.05 | inactive: -0.079 | inactive: -0.037 | inactive: 0.023 | inactive: 0.064 | inactive: 0.02 | inactive: -0.032 | inactive: 0.095 | inactive: 0
4 | RNF20 (UniProt Q5VTR2) | inactive: -0.16 | inactive: -0.267 | inactive: 0.04 | inactive: 0.07 | inactive: -0.006 | inactive: -0.047 | – | inactive: 0 | inactive: -0.204 | inactive: 0.089
5 | RFESD isoform 2 (UniProt Q8TAC1) | inactive: 0.026 | inactive: 0.089 | inactive: -0.011 | inactive: -0.02 | inactive: -0.008 | inactive: -0.043 | inactive: -0.043 | inactive: -0.108 | inactive: -0.039 | inactive: 0
6 | RNF170 (UniProt Q96K19) | inactive: -0.132 | inactive: 0.462 | inactive: 0.095 | inactive: -0.019 | – | inactive: 0.127 | inactive: 0.23 | inactive: 0.017 | inactive: -0.047 | inactive: 0.101
7 | RING1 (UniProt Q06587) | inactive: -0.076 | inactive: -0.283 | inactive: 0.071 | inactive: 0.054 | inactive: -0.035 | inactive: -0.114 | inactive: 0.197 | – | inactive: -0.187 | inactive: 0.059
8 | RIMKLB (UniProt Q9ULI2) | inactive: 0.259 | inactive: 0.032 | inactive: 0.047 | inactive: -0.06 | inactive: -0.03 | – | – | – | – | inactive: 0.001
9 | RMND5A (UniProt Q9H871) | inactive: -0.037 | inactive: -0.168 | inactive: -0.005 | inactive: -0.032 | inactive: 0.007 | inactive: 0.042 | inactive: 0.006 | inactive: -0.032 | inactive: 0.132 | inactive: -0.032
10 | RETREG3 (UniProt Q86VR2) | inactive: -0.04 | inactive: -0.132 | inactive: 0 | inactive: 0.048 | – | inactive: -0.043 | inactive: 0.008 | inactive: -0.02 | inactive: -0.149 | –
11 | RC3H1 (UniProt Q5TC82) | inactive: 0.139 | inactive: 0.236 | – | inactive: -0.173 | inactive: 0.022 | inactive: 0.07 | inactive: 0.048 | inactive: 0.236 | inactive: -0.134 | –
12 | RDH13 (UniProt Q8NBN7) | inactive: -0.154 | inactive: -0.06 | inactive: 0.06 | inactive: 0.022 | – | inactive: -0.058 | inactive: 0.051 | inactive: -0.059 | active: -0.318 | –
13 | RFC3 (UniProt P40938) | inactive: -0.008 | inactive: -0.052 | inactive: 0.047 | inactive: 0.042 | – | inactive: -0.081 | inactive: 0.038 | inactive: -0.096 | inactive: -0.008 | –
14 | RETSAT (UniProt Q6NUM9) | inactive: -0.073 | inactive: -0.073 | inactive: 0.024 | inactive: -0.003 | – | inactive: -0.012 | inactive: 0.036 | inactive: -0.011 | inactive: 0.053 | –
15 | REEP4 (UniProt Q9H6H4) | inactive: -0.023 | inactive: -0.043 | inactive: -0.011 | inactive: -0.08 | – | inactive: 0.051 | inactive: -0.015 | inactive: 0.079 | inactive: -0.134 | –
16 | RLIM (UniProt Q9NVW2) | inactive: 0.15 | inactive: 0 | – | – | – | inactive: -0.231 | inactive: -0.04 | inactive: -0.125 | inactive: -0.08 | –
17 | RETREG2 (UniProt Q8NC44) | inactive: 0.002 | inactive: -0.069 | inactive: -0.021 | – | inactive: -0.022 | – | inactive: 0.022 | inactive: 0.031 | – | inactive: 0.004
18 | RFX3 (UniProt P48380) | inactive: 0.127 | inactive: -0.046 | – | – | inactive: -0.055 | – | – | – | – | inactive: 0.153
19 | RHOA (UniProt P61586) | inactive: -0.098 | inactive: 0.134 | inactive: 0.065 | inactive: 0.049 | – | inactive: 0.071 | inactive: -0.025 | inactive: -0.037 | inactive: 0.01 | –

Row | Target | log2 fold change [1] | log2 fold change (volasertib) | log2 fold change [2] | log2 fold change (epoxomicin) | log2 fold change [3] | log2 fold change [4] | log2 fold change [5] | log2 fold change [6] | log2 fold change [7] | log2 fold change (rosiglitazone)
20 | RIC8A isoform 3 (UniProt Q9NPQ8) | inactive: -0.149 | active: -0.526 | inactive: 0.11 | inactive: 0.061 | – | inactive: 0.036 | inactive: 0.011 | inactive: -0.005 | inactive: -0.186 | –
21 | RNF220 (UniProt Q5VTB9) | inactive: -0.047 | inactive: -0.114 | inactive: 0.085 | inactive: -0.021 | – | inactive: -0.043 | inactive: -0.03 | inactive: -0.045 | inactive: 0.003 | –
22 | RBM39 (UniProt Q14498) | inactive: -0.183 | active: -0.487 | inactive: 0.038 | inactive: -0.027 | – | inactive: 0.079 | inactive: 0.013 | inactive: 0.071 | inactive: -0.045 | –
23 | RNF187 (UniProt Q5TA31) | inactive: 0.155 | inactive: 0.074 | inactive: 0.061 | inactive: 0.15 | – | inactive: 0.002 | inactive: 0.24 | inactive: -0.104 | inactive: -0.073 | –
24 | RNF14 (UniProt Q9UBS8) | inactive: -0.054 | active: -0.288 | inactive: 0.037 | inactive: -0.075 | – | inactive: -0.032 | inactive: -0.019 | inactive: -0.049 | inactive: -0.025 | –
25 | RGN (UniProt Q15493) | inactive: -0.156 | inactive: 0.119 | inactive: -0.154 | – | – | – | inactive: -0.04 | – | – | –
26 | RBSN (UniProt Q9H1K0) | inactive: -0.124 | inactive: -0.404 | inactive: 0.186 | – | inactive: -0.081 | inactive: -0.05 | inactive: -0.056 | inactive: 0.064 | inactive: -0.311 | inactive: 0.133
27 | RCN3 (UniProt Q96D15) | inactive: -0.033 | inactive: 0.053 | inactive: -0.031 | inactive: -0.118 | – | inactive: -0.007 | inactive: -0.019 | inactive: -0.03 | inactive: -0.234 | –
28 | RCOR3 isoform 3 (UniProt Q9P2K3) | inactive: 0.005 | inactive: -0.068 | inactive: -0.078 | – | – | inactive: -0.294 | inactive: 0.038 | inactive: 0.02 | inactive: -0.011 | –
29 | RGS10 (UniProt O43665) | inactive: -0.097 | active: -0.205 | inactive: -0.043 | inactive: 0.101 | – | inactive: 0.011 | inactive: 0.078 | inactive: -0.111 | inactive: -0.016 | –
30 | RIOK3 (UniProt O14730) | inactive: 0.084 | inactive: 0.04 | inactive: -0.01 | inactive: 0.072 | – | inactive: -0.053 | inactive: -0.011 | inactive: -0.023 | inactive: -0.041 | –
31 | RICTOR isoform 3 (UniProt Q6R327) | inactive: -0.271 | active: -0.758 | inactive: -0.033 | inactive: 0.064 | – | inactive: -0.083 | – | inactive: 0.265 | inactive: -0.169 | –
32 | RBMY1E (UniProt A6NEQ0) | inactive: -0.068 | inactive: -0.236 | inactive: -0.034 | – | – | inactive: 0.084 | – | – | inactive: -0.199 | –
33 | RNASET2 (UniProt O00584) | active: -0.275 | inactive: -0.196 | inactive: 0.023 | inactive: -0.027 | – | inactive: 0.045 | inactive: 0.036 | inactive: -0.036 | active: -0.413 | –
34 | RIOK2 (UniProt Q9BVS4) | inactive: 0.133 | inactive: 0.267 | inactive: 0.015 | inactive: -0.032 | – | inactive: -0.013 | inactive: -0.038 | inactive: 0.085 | inactive: 0.202 | –
35 | RHEB (UniProt Q15382) | inactive: 0.038 | inactive: 0.013 | inactive: -0.014 | inactive: 0.002 | – | inactive: 0.02 | inactive: 0.016 | inactive: -0.068 | inactive: -0.003 | –
36 | RMC1 (UniProt Q96DM3) | inactive: -0.192 | active: -0.416 | inactive: 0.095 | inactive: -0.025 | – | inactive: 0.042 | inactive: -0.023 | inactive: -0.039 | inactive: -0.146 | –
37 | RELCH isoform 2 (UniProt Q9P260) | inactive: -0.322 | – | inactive: 0.102 | inactive: 0.001 | inactive: 0 | inactive: -0.004 | inactive: 0.105 | inactive: -0.006 | inactive: -0.165 | inactive: 0.128
38 | RNF130 (UniProt Q86XS8) | inactive: 0.149 | inactive: 0.071 | – | – | inactive: -0.029 | – | – | – | – | inactive: 0.036

Quoted at random: 2 entries already listed
Row | Target | log2 fold change [1] | log2 fold change (volasertib) | log2 fold change [2] | log2 fold change (epoxomicin) | log2 fold change [3] | log2 fold change [4] | log2 fold change [5] | log2 fold change [6] | log2 fold change [7] | log2 fold change (rosiglitazone)
20 | RIC8A isoform 3 (UniProt Q9NPQ8) | inactive: -0.149 | active: -0.526 | inactive: 0.11 | inactive: 0.061 | – | inactive: 0.036 | inactive: 0.011 | inactive: -0.005 | inactive: -0.186 | –
27 | RCN3 (UniProt Q96D15) | inactive: -0.033 | inactive: 0.053 | inactive: -0.031 | inactive: -0.118 | – | inactive: -0.007 | inactive: -0.019 | inactive: -0.03 | inactive: -0.234 | –
